In paper PMC10163288:
This is one part of the list.

B1: il2ra_site1_2b5i_sap_9_mot_HHH_b1_08157_af2_000000055_0001_42_55_H_._HHH_b2_05719_af2_0001_0000400032_0000001_0_0001 (protein)
chain: SSSSNEDRFIARVIWHLVARFNLSREDIQELHRLAIELLERGVSPEEIEELLRELAEELGSSSSS
B2: il2ra_site2_3nfp_sap_18_mot_HHH_b1_03716_000000142_0001_40_56_H_._HHH_b2_01825_0002_0000300055_0000001_1_0001 (protein)
chain: SSSSSESEEYLRAALELARRAIEEGDREAAERILKMIRLAAEDAKDEEALRLAEELLEEVGSSSS
B3: il2ra_site1_3nfp_sap_13_mot_HHH_b1_01335_af2_000000258_0001_39_53_H_._dc5ea9c2c6cb1649bd85fc05aca2b482_0001_0001_0000400028_0000001_0_0001_af2pred_0001_af2pred_ … (protein)
chain: SEVEKLVEEIEKLDPILAELLRIALEKAKKDPEAARRIIKLAEEDAERAGDPEVAELIHEVLKLT
B4: il2ra_site1_3nfp_normal_mot_891b8491a18eb46c9ad5c1702b87f9cc_0001_000000120_0001_18_33_H_._a977d6a2cfab3d20b8a840e59b1ed461_0001_1_0001_0000200009_0000001_0 (protein)
chain: DEELERVKELLEELGDPQARALVKFLENAFKRARVPPEYVLKALEEALEKLGNPELVRLLQEAIK
B5: il2ra_site1_2b5i_sap_21_mot_0921d739bb7547bb6fa23329820ad62a_0001_000000012_0001_54_65_H_._69dbefaddb7cc2bb460f5b2b997c8fad_0001_0001_0000100008_0000001_0_0001 (protein)
chain: SDEEAIEWAVEHAARWLNVPSVEVEVRNGEVHVEIEGDDHAARALAVFARRLAEVLNVKLEVEVR
B6: il2ra_site1_3nfp_normal_mot_ems_3hC_921_af2_000000143_0001_22_40_H_._HHH_b2_00024_0001_0000100003_0000001_0 (protein)
chain: SSSSSSDVLERAARLLDRIIKIKDEEEARELLEEAEELAKEIGDPITEWLVRQLKEHKSSSSSSS
B7: il2ra_site2_3nfp_normal_mot_ems_3hC_474_af2_000000246_0001_42_60_H_._HHH_b2_06761_0001_0000600070_0000001_0_af2pred_0001_af2pred (protein)
chain: SSSDESEEIFERAEKELERLLEEGDEEEAQHATLIAASLLDELGDEELARRLAELLARFLDSSSS
B8: il2ra_site1_1z92_normal_mot_HHH_b1_07828_af2_000000107_0001_18_34_H_._HHH_b1_02447_af2_0001_0000300012_0000001_0 (protein)
chain: SSSSDLEEAIEILLQAIRRAIEAGNEKAAERFIEFAKEQIEDSGDPELERILRELEELLRSSSSS
B9: il2ra_site2_3nfp_sap_26_mot_HHH_b2_05281_000000198_0001_39_56_H_._cd2bdebb681eda360e2a82a7dcebc495_0001_1_af2_0001_0000200009_0000001_0_0001 (protein)
chain: SSSSELEEYVKAAIDLLRRAVEEGDERAVEHLAHLAEATAEDINNPELLEEVQRLVKEFEESSSS
B10: il2ra_site2_3nfp_sap_35_mot_HHH_b2_01087_000000001_0001_1_15_H_._HHH_b2_01975_0002_0000200022_0000001_0_0001_af2pred_0001_af2pred (protein)
chain: SSSSSSDLEEEAEELVEEAKEKADEHDRFALRADRIFAELAGDPKLFEEAKELAKKDLSSSSSSS
B11: il2ra_site1_2b5i_sap_22_mot_HHH_b2_01283_af2_000000044_0001_1_16_H_._HHH_b1_00972_af2_0001_0000500028_0000001_0_0001_af2pred_0001_af2pred (protein)
chain: SSSSSDTEEAVELFRKANELFRNGNPEEAREVLEQAEEIAEEAGSRSLLRMIRAALELLESSSSS
B12: il2ra_site2_3nfp_sap_20_mot_HHH_b1_03818_000000217_0001_1_20_H_._HHH_b1_03372_af2_0001_0000400021_0000001_0_0001 (protein)
chain: DVEELVELAEKARTDPEAAEKLFEEAEEAKKNGDPRLELLIYAVLALAINGVPPEELREFLEERK
B13: il2ra_site2_3nfp_sap_26_mot_HHH_b2_02437_000000052_0001_42_56_H_._a171aa182591c97700389b7a6f87ba9a_0001_af2_0001_0000200033_0000001_1_0001 (protein)
chain: SSSSTAERLLRIALESIKLALRDGDEELAERLIEDLKDAIEQNNDEEAREILEELEERVNSSSSS
B14: il2ra_site1_2b5i_normal_mot_HHH_b1_03013_000000055_0001_1_21_H_._HHH_b1_07693_0001_0000600024_0000001_0_af2pred_dldesign_0_af2pred (protein)
chain: SSSSSPRLKKIDEAEKLLKEIAEKKDEKAFDEVDDLLSKGIKSKDEKLLEEAIEYAKKILSSSSS
B15: il2ra_site1_3nfp_normal_mot_HHH_b2_02053_000000240_0001_1_20_H_._HHH_b1_03028_0001_0000300025_0000001_0_af2pred_0001_af2pred_1_swapped (protein)
chain: SSSSSDIFKEFQELIKEASKITDREELEEVLRQLKEIAEKANSPAAKLLVERLERKAKELSSSSS
B16: il2ra_site2_3nfp_normal_mot_HHH_b1_00660_af2_000000090_0001_40_57_H_._HHH_b2_01407_0001_0000100004_0000001_0_af2pred_0001_1_af2pred_swapped (protein)
chain: SSSSDEELRRLLEEAEELLERGNPEEARRVLRRAAHLAAELGDEEAFMELSKLLELVDRLLSSSS
B17: il2ra_site2_3nfp_sap_16_mot_HHH_b1_01724_000000063_0001_41_55_H_._HHH_b2_00688_0001_0001100041_0000001_0_0001 (protein)
chain: SSSSDKAERYVRAAIELAKLAAEDGDEEANEKALRLAELAAQDNRNPELEELVQELRELLESSSS
B18: il2ra_site1_3nfp_sap_16_mot_HHH_b2_06400_af2_000000233_0001_43_56_H_._HHH_b1_04025_af2_0001_0000100004_0000001_0_0001 (protein)
chain: PEEALRELLELARELGDEDVAEALEDVLERIEEGDPAAQWIALLLERLLRKLPPEEVIRHLRRAA
B19: il2ra_site2_3nfp_normal_mot_HHH_b1_02962_000000041_0001_43_56_H_._HHH_b2_03422_0001_0000200036_0000001_0 (protein)
chain: SSSSDEEVQREVEELLEEAKHIEDPEELRKVLQEAALLAYEARDAELFALVAEVLFKLLHHSSSS
B20: il2ra_site2_3nfp_sap_12_mot_968ffe68aa11d68c04d2634bf871f227_0001_1_af2_000000211_0001_1_14_H_._HHH_b2_04736_af2_0001_0000200012_0000001_1_0001 (protein)
chain: SSSSSDEEQERVEELLEEAKEIEDEEEVRKLLHEASRLAMEADDLELYELVAKFYKELHSSSSSS
B21: il2ra_site2_2erj_sap_23_mot_HHH_b2_01204_af2_000000019_0001_19_34_H_._HHH_b2_08335_0001_0001100036_0000001_0_0001 (protein)
chain: SSSSDELRRLYEILVKLLRLLFEGDEEEVERLLEELERLAEELNSDTAKAALETLRRKLRSSSSS
B22: il2ra_site1_1z92_sap_10_mot_HHH_b1_08504_af2_000000168_0001_42_54_H_._HHH_b2_05427_0001_0000300019_0000001_0_0001 (protein)
chain: SSSSNEKVLRRIVEMLVKAAGLSEEAEEILREELEELLREGVDAEEIIKILDELARRLAENSSSS
B23: il2ra_site1_3nfp_normal_mot_1cd86ef9f1587ae5d14d35bbbd8e7f1d_0001_1_000000087_0001_34_49_H_._HHH_b2_06542_af2_0001_0000200009_0000001_0_af2pred_0001_af2pred_swa … (protein)
chain: SSSSSEEAHRLSEEALEAAHRGDFEEAKKLAEEALKIAEEEGDERLAEYIEKLLEQIEKTGSSSS
B24: il2ra_site2_3nfp_sap_6_mot_HHH_b2_00323_af2_000000120_0001_23_39_H_._e55687cc0594206fc50f821845281bce_0001_af2_0001_0000100007_0000001_0_0001 (protein)
chain: GPEEKLEHAAKARGDPRFAIFALLADLVYELGDPEEAAELLREVIERLFNVPPEEAERLLREAAN
B25: il2ra_site2_2erj_sap_16_mot_HHH_b1_06777_000000153_0001_1_20_H_._HHH_b1_07248_0001_0001300025_0000001_0_0001 (protein)
chain: SSSSSEDEKEVEELLEEAKKLYEEGDLHEVFRLIVEALHIASRNNDDELQRLVMKVVEEISSSSS
B26: il2ra_site2_2erj_sap_27_mot_HHH_b1_04373_af2_000000118_0001_18_33_H_._8c87799e5e14fa72b7a696e58182a465_0001_0001_0000400035_0000001_0_0001_af2pred_0001_1_af2pre … (protein)
chain: SSSDEEELKERLEELIEKLAEELGLDEREILAIKVFIRAAIELGASEEELRLAVESAVKAASSSS
B27: il2ra_site2_3nfp_sap_14_mot_HHH_b2_08245_000000023_0001_41_55_H_._0a42daeb3aece44cdc522fd0f5bebdbb_0001_0001_0000500021_0000001_0_0001 (protein)
chain: SSSSDIEERLEELKREIEELIEEGDVHEAAQLAAELSELAAEYGDEEAFELVVEVMELAQSSSSS
B28: il2ra_site1_3nfp_sap_23_mot_1cd86ef9f1587ae5d14d35bbbd8e7f1d_0001_1_000000087_0001_34_49_H_._HHH_b2_03047_0001_0000500030_0000001_0_0001 (protein)
chain: SREDIEKVFRLLAKNPEEAVRLLRELVEETGDPELKRALELLEEALETNDPRLAKEASRILIRLA
B29: il2ra_site2_3nfp_sap_21_mot_HHH_b1_03230_af2_000000282_0001_23_39_H_._HHH_b2_05509_af2_0001_0001500013_0000001_0_0001 (protein)
chain: SSSSSEELEELLRELEELLKRGDEEEFRKLFAEIAHLAFRLNDPEIFYRVAELALEFVQRRSSSS
B30: il2ra_site1_1z92_sap_19_mot_HHH_b1_07036_000000095_0001_39_53_H_._HHH_b2_03837_0001_0000100006_0000001_0_0001 (protein)
chain: SRLERDVELILELAGTPERAVRFVERFAEQLLENGDPESAEELLEVAAKILGDPRLEELLEKIRK
B31: il2ra_site2_3nfp_normal_mot_HHH_b1_02826_000000151_0001_21_38_H_._c92f2f267e3140931cbaf1d223b4767f_0001_1_af2_0001_0000300015_0000001_0_af2pred_0001_af2pred (protein)
chain: TLAEEVLELLEEGDEEEAEKAVERLVKAARRLGAPPEDAEFWVKLLLERAGIPPELVEKLLEALR
B32: il2ra_site1_3nfp_normal_mot_0eddeacbb14b769e73e254714f31e2f9_0001_af2_000000052_0001_37_51_H_._HHH_b2_04962_0001_0000400014_0000001_0 (protein)
chain: SSSSDTEEYAEEVAERLRELIQEGDFEEARRLAQEASKFVKERRNTEAADILYEVLREIISSSSS
B33: il2ra_site1_1z92_normal_mot_HHH_b1_04602_000000153_0001_1_19_H_._HHH_b2_03060_af2_0001_0000100018_0000001_0 (protein)
chain: SSSDRKEEAFVRVVVKALVEMANLSEEQEEKLEELARELLERGVDELEILKELDRLAAELESSSS
B34: il2ra_site2_2erj_sap_19_mot_HHH_b2_01204_af2_000000051_0001_19_34_H_._HHH_b1_06791_0001_0000100006_0000001_0_0001 (protein)
chain: DEVEELEKLLREAATLAWRRNDFELYNLLSEAFRRLAQVLVENDEEEKEKANKFAKEVIEEAESS
B35: il2ra_site1_1z92_sap_11_mot_HHH_b1_04488_000000139_0001_42_58_H_._HHH_b2_08307_af2_0001_0000200009_0000001_0_0001_af2pred_0001_af2pred_1_swapped (protein)
chain: DEAHRLDLEQARKQGLPPEKAVRAVIRAIAQIERVPPEEAAEILLEVLEKLGDPELAEIAEELTP
B36: il2ra_site1_1z92_normal_mot_HHH_b1_01565_af2_000000147_0001_1_17_H_._HHH_b2_00438_0001_0000200025_0000001_0 (protein)
chain: SSSSSSEVEVAAKAVAQAAGLSEEQEEELRELARELLEEGYSELEILKILDRRALELNESSSSSS
B37: il2ra_site1_2b5i_normal_mot_HHH_b2_04910_000000118_0001_1_19_H_._HHH_b1_07536_0001_0000100003_0000001_0 (protein)
chain: SSSSSSSEEARELFEEADELDRRGDPEEAERVLREAEEIAREAGSRALLRVIEAALKQAESSSSS

target: il2ra, P01589; assay: yeast display titration

Apparent Kd, inactive:
B1 no binding seen
B2 no binding seen
B3 no binding seen
B4 no binding seen
B5 no binding seen
B6 no binding seen
B7 no binding seen
B8 no binding seen
B9 no binding seen
B10 no binding seen
B11 no binding seen
B12 no binding seen
B13 no binding seen
B14 no binding seen
B15 no binding seen
B16 no binding seen
B17 no binding seen
B18 no binding seen
B19 no binding seen
B20 no binding seen
B21 > 2440 nM
B22 no binding seen
B23 no binding seen
B24 no binding seen
B25 no binding seen
B26 no binding seen
B27 no binding seen
B28 no binding seen
B29 no binding seen
B30 no binding seen
B31 no binding seen
B32 no binding seen
B33 no binding seen
B34 no binding seen
B35 no binding seen
B36 no binding seen
B37 no binding seen

Retrieved one by one from the entries so far:
Apparent Kd, inactive:
B19 no binding seen
B3 no binding seen
